Results from US8829035B2, “Agent for treatment or prevention of diseases associated with activity of neurotrophic factors” (Sumitomo Chemical Company, Limited, priority 2009, dated 2014).
The name of at least one read-out is uncertain.

System: activity of 200 ng/mL of NGF (NXF promoter-driven luciferase in PC12 cells)
Test: Luciferase reporter assay (NXF promoter) in PC12 cells: potentiation of NGF activity
Assay type: cell-based, rat
Experimental: The forward primer 5′-[…]-3′ and the reverse primer 5′-[…]-3′ were prepared as the PCR primers according to the sequence information for the NXF gene genome sequence (Accession Nos. AB054577 and NC—000085), and the PCR method was used to isolate from approximately 5 kbp upstream from the translated region of the NXF gene promoter portion to the vicinity of the transcription start site. For this, 1 μg of mouse genomic DNA (Takara) was used as the template, and the 2-step PCR reaction was carried out for 35 cycles, the conditions for which were 95° C./1 m in the denaturing step, and 68° C./8 m in the annealing and extension steps, to obtain the PCR product. The NXF promoter fragment was inserted into the SmaI site of the pGL3 Basic vector (Promega) in the upstream of luciferase gene to prepare a reporter plasmid that would express the luciferase enzyme driven by the NXF promoter.
PC12 cells (available from the ATCC) were cultured using RPMI medium (GIBCO-BRL) with 5% FCS (GIBCO-BR) and 15% horse serum (GIBCO-BRL) added, and 1 mM in sodium pyruvate (GIBCO-BRL), at 37° C. in the presence of 5% CO2. After transfection in 10^6 of these PC12 cells for 2 days with 12 μg of the above-described reporter plasmid and 1 μg of pRC/RSV vector (Invitrogen) using the Lipofectamine 2000 reagent (Invitrogen), the medium was exchanged for fresh medium containing 40 mg/L of geneticin sulfate (GIBCO), and this was cultured continuously. Culturing was continued for approximately 1 month with medium exchange of the cultured medium containing 40 mg/L of geneticin sulfate (GIBCO) every several days, with the result that multiple colonies of the obtained cells were picked up. Among these, one of the colonies that induced luciferase activity in the presence of 40 ng/mL of NGF (Wako Pure Chemicals) was selected and used for the cells to evaluate the activity of the compounds below.
These cells were set up in 96-well plates with 80% confluence, and the luciferase reporter assay was conducted using the Promega Steady Glo luciferase assay kit. The procedure was carried out overnight (approx. 16 hours) using culture medium containing the compound, and the Steady Glo substrate solution was added to the cells in half-diluted in PBS after removal of all remaining medium containing the compound. After this was allowed to stand for 30 minutes, the respective quantity of light produced was measured with a luminometer (Envision Perkin Elmer).
The activity of the compounds for evaluation was measured as the potentiation of the activity of 200 ng/mL of NGF. For the experiment control wells, the negative control well had medium containing only a final concentration of 0.1% DMSO, the positive control well had medium containing a saturation concentration of NGF. In addition, a test well was set up containing 0.1% DMSO with 200 ng/mL of NGF added corresponding to a 0 compound concentration. When its luciferase activity was taken as a standard, the relative luciferase activity could be calculated for the test wells to which the compound solution (dissolved in DMSO and prepared to have a final DMSO concentration of 0.1%) had been added in addition to the 200 ng/mL of NGF, to find the potentiation of the activity of 200 ng/mL of NGF due to that compound.

[1] = Test Example 4, same manner as Test Example 1, relative luciferase activity vs 200 ng/mL NGF alone
[2] = Test Example 1, relative luciferase activity vs 200 ng/mL NGF alone, overnight (approx. 16 hours)

`CCCNC(=O)c1ccc(-c2nc3cc(-c4nc5cc(Cl)ccc5o4)ccc3n2C2CCOCC2)cc1` [Ex. 123, 5-(5-chlorobenzoxazol-2-yl)-2-(4-n-propylaminocarbonylphenyl)-1-(tetrahydropyran-4-yl)benzimidazole] was tested, and the “Activity (potentiation of NGF activity)” value [1] was “+++ (Showed particularly strong potentiation (2-fold or greater potentiation of the activity of 200 ng/mL of NGF at 1 μM))”.
`COc1ccc(-c2nc3cc(-c4nc5ccccc5o4)ccc3n2C2CCOCC2)cc1` [Ex. 124, 5-(benzoxazol-2-yl)-2-(4-methoxyphenyl)-1-(tetrahydropyran-4-yl)benzimidazole] was tested, and the “Activity (potentiation of NGF activity)” value [1] was “+++ (Showed particularly strong potentiation (2-fold or greater potentiation of the activity of 200 ng/mL of NGF at 1 μM))”.
With `COc1ccccc1-c1nc2cc(-c3nc4ccccc4o3)ccc2n1C1CCOCC1` [Ex. 125, 5-(benzoxazol-2-yl)-2-(2-methoxyphenyl)-1-(tetrahydropyran-4-yl)benzimidazole] the “Activity (potentiation of NGF activity)” value [1] was “+++ (Showed particularly strong potentiation (2-fold or greater potentiation of the activity of 200 ng/mL of NGF at 1 μM))”.
`Clc1cccc(-c2nc3cc(-c4nc5ccccc5o4)ccc3n2C2CCOCC2)c1` [Ex. 127, 5-(benzoxazol-2-yl)-2-(3-chlorophenyl)-1-(tetrahydropyran-4-yl)benzimidazole] was tested, and the “Activity (potentiation of NGF activity)” value [1] was “+++ (Showed particularly strong potentiation (2-fold or greater potentiation of the activity of 200 ng/mL of NGF at 1 μM))”.
In the case of `Clc1ccc(-c2nc3cc(-c4nc5ccccc5o4)ccc3n2C2CCOCC2)cc1` [Ex. 128, 5-(benzoxazol-2-yl)-2-(4-chlorophenyl)-1-(tetrahydropyran-4-yl)benzimidazole], the “Activity (potentiation of NGF activity)” value [1] is reported as “+++ (Showed particularly strong potentiation (2-fold or greater potentiation of the activity of 200 ng/mL of NGF at 1 μM))”.
`Cc1nc2cc(-c3nc4ccccc4o3)ccc2n1CCN1CCCCC1` [Ex. 129, 5-(benzoxazol-2-yl)-1-(2-(piperidin-1-yl)ethyl)-1-(tetrahydropyran-4-yl)benzimidazole] was tested, and the “Activity (potentiation of NGF activity)” value [1] was “+++ (Showed particularly strong potentiation (2-fold or greater potentiation of the activity of 200 ng/mL of NGF at 1 μM))”.
In the case of `CSCCn1c(C)nc2cc(-c3nc4ccccc4o3)ccc21` [Ex. 131, 5-(benzoxazol-2-yl)-1-(2-(methylthio)ethyl)-2-methylbenzimidazole], the “Activity (potentiation of NGF activity)” value [1] is reported as “+++ (Showed particularly strong potentiation (2-fold or greater potentiation of the activity of 200 ng/mL of NGF at 1 μM))”.
In the case of `Clc1ccc2oc(-c3ccc4c(c3)ncn4C3CCOCC3)nc2c1` [Ex. 136, 5-(5-chlorobenzoxazol-2-yl)-1-(tetrahydropyran-4-yl)benzimidazole], the “Activity (potentiation of NGF activity)” value [1] is reported as “+++ (Showed particularly strong potentiation (2-fold or greater potentiation of the activity of 200 ng/mL of NGF at 1 μM))”.
With `FC(F)(F)CCn1cnc2cc(-c3nc4cc(Cl)ccc4o3)ccc21` [Ex. 139, 5-(5-chlorobenzoxazol-2-yl)-1-(3,3,3-trifluoropropyl)benzimidazole] the “Activity (potentiation of NGF activity)” value [1] was “+++ (Showed particularly strong potentiation (2-fold or greater potentiation of the activity of 200 ng/mL of NGF at 1 μM))”.
`Cc1nc2cc(-c3nc4ccccc4[nH]3)ccc2n1C1CCOCC1` [Ex. 140, 5-(benzimidazol-2-yl)-2-methyl-1-(tetrahydropyran-4-yl)benzimidazole] was tested, and the “Activity (potentiation of NGF activity)” value [1] was “+++ (Showed particularly strong potentiation (2-fold or greater potentiation of the activity of 200 ng/mL of NGF at 1 μM))”.
In the case of `Cc1nc2cc(-c3nc4ccccc4s3)ccc2n1-c1ccccc1` [Syn. Ex. 1, 5-(benzothiazol-2-yl)-2-methyl-1-phenylbenzimidazole], the “Activity (potentiation of NGF activity)” value [2] is reported as “+++ (Showed particularly strong potentiation (2-fold or greater potentiation of the activity of 200 ng/mL of NGF at 1 μM))”.
With `Cc1nc2cc(-c3nc4ccccc4[nH]3)ccc2n1-c1ccccc1` [Syn. Ex. 2, 5-(benzimidazol-2-yl)-2-methyl-1-phenylbenzimidazole] the “Activity (potentiation of NGF activity)” value [2] was “+++ (Showed particularly strong potentiation (2-fold or greater potentiation of the activity of 200 ng/mL of NGF at 1 μM))”.
`CCn1c(C)nc2cc(-c3nc4ccccc4o3)ccc21` [Syn. Ex. 7, 5-(benzoxazol-2-yl)-1-ethyl-2-methylbenzimidazole] was tested, and the “Activity (potentiation of NGF activity)” value [1] was “+++ (Showed particularly strong potentiation (2-fold or greater potentiation of the activity of 200 ng/mL of NGF at 1 μM))”.
